PubChem BioAssay AID1259424, University of Nebraska Medical Center, 2018
The whole screen tested about 14,000 reagents; this is an unselected part. 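Higher correlation or smaller distance means closer resemblance to KSR1 loss; control wells, including KSR1 knockdowns, recur on many plates.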 Not given: the time to read-out.

- Purpose: 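Seek colon cancer survival genes behaving like KSR1, using a six-gene signature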 (primary screen)
- Cells: human HCT116 colon cancer cells
- Knock-down reagent: siRNA pool against human genes, 50 nM
- Measurement: 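Six signature mRNAs by branched-DNA multiplex assay, scaled to two housekeeping genes and non-targeting median, log2; matched to mean KSR1 knockdown profile by Pearson correlation and euclidean distance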
- Reading the numbers: mean correlation with KSR1 profile and KSR1 correlation: higher = expression change more like KSR1 knockdown; mean distance from KSR1 profile: higher = expression change less like KSR1 knockdown

| gene | mean correlation with KSR1 profile | mean distance from KSR1 profile | KSR1 correlation, replicate 1 | KSR1 correlation, replicate 2 | KSR1 correlation, replicate 3 |
| --- | --- | --- | --- | --- | --- |
| DIAPH2 | -0.251 | 1.86 | -0.113 | -0.552 | -0.342 |
| ITGB2 | -0.551 | 1.41 | -0.579 | -0.0632 | -0.418 |
| BCAN | -0.0103 | 2.26 | 0.159 | -0.0218 | -0.111 |
| C1orf56 | 0.553 | 1.45 | 0.561 | 0.381 | 0.616 |
| CGB8 | -0.266 | 2.19 | -0.319 | -0.256 | -0.38 |
| PDPK1 | 0.291 | 2.11 | 0.318 | 0.141 | 0.427 |
| CCNI | 0.326 | 2.22 | 0.316 | 0.32 | 0.138 |
| CDC23 | 0.845 | 1.12 | -0.153 | 0.608 | 0.893 |
| CACYBP | -0.237 | 2.02 | -0.313 | -0.569 | -0.4 |
| RPGRIP1 | -0.357 | 3.36 | -0.458 | -0.262 | -0.159 |

The list goes on (2 carried over from the part before).
| gene | mean correlation with KSR1 profile | mean distance from KSR1 profile | KSR1 correlation, replicate 1 | KSR1 correlation, replicate 2 | KSR1 correlation, replicate 3 |
| --- | --- | --- | --- | --- | --- |
| CACYBP | -0.237 | 2.02 | -0.313 | -0.569 | -0.4 |
| RPGRIP1 | -0.357 | 3.36 | -0.458 | -0.262 | -0.159 |
| PTGDR2 | 0.0768 | 2.12 | 0.142 | 0.254 | -0.258 |
| ICE1 | -0.38 | 2.58 | -0.394 | -0.576 | -0.231 |
| TAGLN3 | -0.373 | 3.55 | -0.396 | -0.427 | -0.491 |
| TVP23B | -0.294 | 2.61 | -0.294 | -0.209 | -0.428 |
| NOLC1 | 0.532 | 2.52 | 0.416 | 0.271 | 0.583 |
| GOSR2 | -0.281 | 1.49 | -0.37 | -0.342 | -0.239 |
| TRAPPC12 | 0.248 | 2.74 | 0.362 | 0.274 | 0.263 |
| ICMT | -0.42 | 1.91 | -0.478 | -0.35 | -0.403 |
| HNRNPH3 | -0.0113 | 2.97 | -0.128 | -0.193 | 0.215 |
| CD22 | -0.209 | 2.17 | 0.0243 | -0.318 | -0.188 |
